Experimental data as given in patent publication US20240270727A1, “NEW SUBSTITUTED PYRIDINES AS FUNGICIDE” (BASF SE, priority 2021, published 2024).
Some entries share one result that the patent states for a list of compounds.

How the values were obtained:
Phytophthora infestans = format: cell-based; conditions: 31 ppm, DOB media pH 7
[1] = system: Pyrenophora teres Qoi (FL129) resistant isolate; assay: Example 13: activity against Pyrenophora teres Qoi (FL129) resistant isolate in the microtiterplate test; conditions: 31 ppm; Pyrenophora teres Qoi (FL129) resistant isolates; DOB media pH 7
Fusarium gramminearis = assay: Example 10: activity against Fusarium gramminearis in the microtiterplate test; format: cell-based; conditions: 31 ppm, DOB media pH 7
Botrytis cinerea [2] = assay: Example 21: preventative fungicidal control of Botrytis cinerea on leaves of green pepper (green house); format: in vivo; conditions: 100 g/ha, inoculated next day, assessed after 5 days, untreated plants 100% infected
Sclerotinia sclerotiorum = assay: Example 20: preventative fungicidal control of white mold on oilseed rape caused by Sclerotinia sclerotiorum (green house); format: in vivo; conditions: 100 g/ha, assessed after 14 days, untreated plants 100% infected
Botrytis cinerea [3] = assay: Example 4: activity against the grey mold Botrytis cinerea in the microtiterplate test; format: cell-based; conditions: 31 ppm, relative to active compound-free control (100%)
Botrytis cinerea [4] = assay: Example 19: preventative fungicidal control of Botrytis cinerea on leaves of green pepper (green house); format: in vivo; conditions: 250 ppm spray, inoculated next day, assessed after 5 days, untreated plants 90% infected
Venturia inaequalis = assay: Example 3: activity against Venturia inaequalis in the microtiterplate test; format: cell-based; conditions: relative to active compound-free control (100%)
Microdochium nivale = assay: Example 7: activity against Microdochium nivale in the microtiterplate test; conditions: 31 ppm, DOB media pH 7
Leptosphaeria nodorum = assay: Example 9: activity against Leptosphaeria nodorum in the microtiterplate test; conditions: 31 ppm, DOB media pH 7
[5] = system: Colletotrichum orbiculare; assay: Example 8: activity against Colletotrichum orbiculare in the microtiterplate test; conditions: 31 ppm, DOB media pH 7
Leptosphaeria maculans = assay: Example 14: activity against Leptosphaeria maculans in the microtiterplate test; conditions: 31 ppm, DOB media pH 7
Monilinia laxa = assay: Example 11: activity against Monilinia laxa in the microtiterplate test; conditions: 31 ppm, DOB media pH 7
Mycosphaerella fijiensis = assay: Example 16: activity against Mycosphaerella fijiensis in the microtiterplate test; conditions: 31 ppm, DOB media pH 7
Botrytis cinerea [6] = assay: Example 22: long lasting control of Botrytis cinerea on leaves of green pepper (green house); conditions: 100 g/ha, inoculated 7 days after treatment, assessed after 5 days, untreated plants 90% infected
Septoria tritici = assay: Example 6: activity against leaf blotch on wheat caused by Septoria tritici in the microtiterplate test; format: cell-based; conditions: 31 ppm, relative to active compound-free control (100%)
Corynespora cassiicola = assay: Example 17: activity against Corynespora cassiicola in the microtiterplate test; conditions: 31 ppm, DOB media pH 7
Fusarium culmorum = assay: Example 5: activity against Fusarium culmorum in the microtiterplate test; format: cell-based; conditions: 31 ppm, relative to active compound-free control (100%)

Row | SMILES | growth of the pathogen (Phytophthora infestans) [%] | growth of the pathogen [1] [%] | growth of the pathogen (Fusarium gramminearis) [%] | growth of the pathogen (fungal attack assessed as % diseased leaf area) (Botrytis cinerea [2]) | growth of the pathogen (fungal attack assessed as % diseased leaf area) (Sclerotinia sclerotiorum) | growth of the pathogen (Botrytis cinerea [3]) [%] | growth of the pathogen (fungal attack assessed as % diseased leaf area) (Botrytis cinerea [4]) | growth of the pathogen (Venturia inaequalis; at 50 ppm) [%] | growth of the pathogen (Microdochium nivale) [%] | growth of the pathogen (Leptosphaeria nodorum) [%] | growth of the pathogen [5] [%] | growth of the pathogen (Leptosphaeria maculans) [%] | growth of the pathogen (Monilinia laxa) [%] | growth of the pathogen (Venturia inaequalis; 31 ppm) [%] | growth of the pathogen (Mycosphaerella fijiensis) [%] | growth of the pathogen (fungal attack assessed as % diseased leaf area) (Botrytis cinerea [6]) | growth of the pathogen (Septoria tritici) [%] | growth of the pathogen (Corynespora cassiicola) [%] | growth of the pathogen (Fusarium culmorum) [%]
1 | Cc1cc(C2=NCC(C)(C)Oc3ccccc32)cnc1C [Ex-2] | ≤ 19 | ≤ 19 | ≤ 16 | – | – | – | – | – | – | – | – | – | – | – | – | – | – | – | –
2 | Cc1cc(C2=NCC(C)(C)Oc3ccccc32)cnc1C(F)F [Ex-8] | ≤ 19 | – | – | at most 18% | at most 15% | ≤ 1 | at most 15% | – | – | – | – | – | – | – | – | – | – | – | –
3 | Cc1cc(C2=NC(C)C(C)(C)Oc3ccccc32)cnc1C(F)F (centres unmarked) [Ex-12] | ≤ 19 | ≤ 19 | – | at most 18% | at most 15% | ≤ 1 | at most 15% | ≤ 20 | ≤ 19 | ≤ 12 | ≤ 15 | ≤ 19 | ≤ 20 | – | – | – | – | – | –
4 | Cc1cc(C2=NC3(CC3)COc3ccccc32)cnc1C(F)F [Ex-21] | – | ≤ 19 | – | – | at most 15% | ≤ 1 | – | – | ≤ 19 | ≤ 12 | – | ≤ 19 | ≤ 20 | ≤ 20 | ≤ 20 | at most 14% | ≤ 18 | – | –
5 | Cc1cc(C2=NCC(C)(C)Oc3cc(F)ccc32)cnc1C [Ex-27] | – | ≤ 19 | ≤ 16 | at most 18% | at most 15% | ≤ 1 | – | – | ≤ 19 | ≤ 12 | ≤ 15 | ≤ 19 | ≤ 20 | – | ≤ 20 | at most 14% | – | ≤ 16 | ≤ 9
6 | Cc1cc(C2=NC3(CCC3)COc3ccccc32)cnc1C(F)F [Ex-28] | – | ≤ 19 | – | – | at most 15% | ≤ 1 | – | – | ≤ 19 | ≤ 12 | ≤ 15 | ≤ 19 | ≤ 20 | ≤ 20 | ≤ 20 | at most 14% | ≤ 18 | ≤ 16 | –
7 | Cc1cc(C2=NC(C)C(C)(C)Oc3c(F)cccc32)cnc1C (centres unmarked) [Ex-34] | – | ≤ 19 | ≤ 16 | – | at most 15% | ≤ 1 | – | – | ≤ 19 | ≤ 12 | ≤ 15 | ≤ 19 | ≤ 20 | – | ≤ 20 | – | – | ≤ 16 | ≤ 9
8 | Cc1cc(C2=NC3(CC3)COc3c(F)cccc32)cnc1C(F)F [Ex-47] | – | ≤ 19 | – | – | at most 15% | ≤ 1 | – | – | ≤ 19 | ≤ 12 | – | – | ≤ 20 | ≤ 20 | – | at most 14% | ≤ 18 | ≤ 16 | –
9 | Cc1cc(C2=NC3(CC3)COc3c(F)cccc32)cnc1C [Ex-48] | – | – | – | – | – | ≤ 1 | – | – | – | – | – | – | – | – | – | – | ≤ 18 | – | ≤ 9
